{"source": "PubChem BioAssay AID1224826 (NIAID, 2016)", "assay": "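Genes that change LPS-induced Tnf promoter activity in mouse macrophages when knocked down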 (primary screen)", "cells": "RAW264.7 G9 macrophages from mouse bearing reporters for p65 (GFP) and the Tnf promoter (mCherry)", "knock-down reagent": "siRNA pool against mouse genes, 100 nM", "duration": "16 h of LPS stimulation, after 2 days of siRNA transfection", "challenge": "bacterial lipopolysaccharide (Salmonella minnesota R595), 10 ng/ml", "read-out": "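Imaged Tnf reporter mCherry in nuclei, minus background, normalised per plate to the median and expressed as robust z-scores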", "reading the numbers": "Tnf reporter robust z-score: higher = stronger Tnf promoter reporter signal after LPS", "hit rule": "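a well counts as active at a score of -1.3 or below (Tlr4 knock-down control median) or above 3 (raised signal); controls and wells holding fewer than 50 cells are excluded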", "meaning of the calls": "active = Tnf reporter clearly lowered or raised; inactive = no clear change in Tnf reporter", "note": "The whole screen tested about 17,000 reagents; below is a part drawn at random. In the full data, about 1,110 (6.6%) got an active call. 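Active means lowered or raised reporter signal; replicate intensities are raw and not normalised per plate.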 Unmarked entries are inactive. The numbers tell different reagents against one gene apart. Further read-outs or replicates are left out here."}
{"gene knocked down":"Fkbp3 (FK506 binding protein 3)","reagent no.":1,"Tnf reporter robust z-score":2.01,"fewer than 50 cells in well":"enough cells in well"}
{"gene knocked down":"Dhx38 (DEAH-box helicase 38)","reagent no.":1,"Tnf reporter robust z-score":"-1.33 (active)","fewer than 50 cells in well":"enough cells in well"}
{"gene knocked down":"Rora (RAR-related orphan receptor alpha)","reagent no.":1,"Tnf reporter robust z-score":-0.94,"fewer than 50 cells in well":"enough cells in well"}
{"gene knocked down":"Ascc2 (activating signal cointegrator 1 complex subunit 2)","reagent no.":1,"Tnf reporter robust z-score":"3.32 (active)","fewer than 50 cells in well":"enough cells in well"}
{"gene knocked down":"Stil (Scl/Tal1 interrupting locus)","reagent no.":1,"Tnf reporter robust z-score":0.3,"fewer than 50 cells in well":"enough cells in well"}
{"gene knocked down":"Clk1 (CDC-like kinase 1)","reagent no.":1,"Tnf reporter robust z-score":"-1.34 (active)","fewer than 50 cells in well":"enough cells in well"}
{"gene knocked down":"Fem1b (fem 1 homolog b)","reagent no.":1,"Tnf reporter robust z-score":0.94,"fewer than 50 cells in well":"enough cells in well"}
{"gene knocked down":"Cfap74 (cilia and flagella associated protein 74)","reagent no.":1,"fewer than 50 cells in well":"fewer than 50 cells per well; well left out of calls"}
{"gene knocked down":"Pbdc1 (polysaccharide biosynthesis domain containing 1)","reagent no.":1,"Tnf reporter robust z-score":-0.73,"fewer than 50 cells in well":"enough cells in well"}
{"gene knocked down":"Ddx3x (DEAD box helicase 3, X-linked)","reagent no.":1,"Tnf reporter robust z-score":2.56,"fewer than 50 cells in well":"enough cells in well"}
{"gene knocked down":"Ddx3x (DEAD box helicase 3, X-linked)","reagent no.":2,"Tnf reporter robust z-score":0.13,"fewer than 50 cells in well":"enough cells in well"}
{"gene knocked down":"Or11g1 (olfactory receptor family 11 subfamily G member 1)","reagent no.":1,"fewer than 50 cells in well":"fewer than 50 cells per well; well left out of calls"}

Laid out differently: 2 of the entries above.
| gene knocked down | reagent no. | Tnf reporter robust z-score | fewer than 50 cells in well |
| --- | --- | --- | --- |
| Clk1 (CDC-like kinase 1) | 1 | -1.34 (active) | enough cells in well |
| Fem1b (fem 1 homolog b) | 1 | 0.94 | enough cells in well |
